# Data reported in the supplement of paper PMC8728848.
# Some of the results follow.
# What was measured:
# Assay in all cases: glycan array binding signal (z-score within array); higher = stronger binding
# Settings in all cases: glycan notation: IUPAC condensed, linker removed
# [1] = target: Neu5Ac(a2-3)Gal(b1-4)GlcNAc(b1-3)Gal(b1-4)GlcNAc(b1-3)Gal(b1-4)GlcNAc
# Procedure, shortened: (§1)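 The Consortium for Functional Glycomics database supplied 3228 glycan arrays, of which those lacking an available protein sequence were dropped. The binding signal, a within-array Z-score, was averaged across arrays of the same protein sequence and across linkers. Negative scores can be read as non-binding.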
# [2] = target: Neu5Ac(a2-3)Gal(b1-4)GlcNAc(b1-3)Gal(b1-4)GlcNAc(b1-3)Gal(b1-4)GlcNAc(b1-2)Man(a1-3)[Neu5Ac(a2-3)Gal(b1-4)GlcNAc(b1-3)Gal(b1-4)GlcNAc(b1-3)Gal(b1-4)GlcNAc(b1-2)Man(a1-6)]GalNAc
# Procedure, shortened: as §1
# [3] = target: Neu5Ac(a2-3)Gal(b1-4)GlcNAc(b1-3)Gal(b1-4)GlcNAc(b1-3)GalNAc
# Procedure, shortened: as §1
# [4] = target: Neu5Ac(a2-3)Gal(b1-4)GlcNAc(b1-3)Gal(b1-4)GlcNAc(b1-3)[Neu5Ac(a2-3)Gal(b1-4)GlcNAc(b1-3)Gal(b1-4)GlcNAc(b1-6)]GalNAc
# Procedure, shortened: as §1
# [5] = target: Neu5Ac(a2-3)Gal(b1-4)GlcNAc(b1-3)Gal(b1-4)GlcNAc(b1-6)[Gal(b1-3)]GalNAc
# Procedure, shortened: as §1
# [6] = target: Neu5Ac(a2-3)Gal(b1-4)GlcNAc(b1-3)Gal(b1-4)[Fuc(a1-3)]GlcNAc
# Procedure, shortened: as §1
# [7] = target: Neu5Ac(a2-3)Gal(b1-4)GlcNAc(b1-3)GalNAc
# Procedure, shortened: as §1
# [8] = target: Neu5Ac(a2-3)Gal(b1-4)GlcNAc(b1-3)[Neu5Ac(a2-3)Gal(b1-4)GlcNAc(b1-6)]GalNAc
# Procedure, shortened: as §1
# [9] = target: Neu5Ac(a2-3)Gal(b1-4)GlcNAc(b1-6)GalNAc
# Procedure, shortened: as §1
# [10] = target: Neu5Ac(a2-3)Gal(b1-4)GlcNAc(b1-6)[Gal(b1-3)]GalNAc
# Procedure, shortened: as §1
# [11] = target: Neu5Ac(a2-3)Gal(b1-4)GlcNAc(b1-6)[Neu5Ac(a2-3)Gal(b1-3)]GalNAc
# Procedure, shortened: as §1
# [12] = target: Neu5Ac(a2-3)Gal(b1-4)GlcNAc6S
# Procedure, shortened: as §1
# [13] = target: Neu5Ac(a2-3)Gal(b1-4)[Fuc(a1-3)]GlcNAc
# Procedure, shortened: as §1
# [14] = target: Neu5Ac(a2-3)Gal(b1-4)[Fuc(a1-3)]GlcNAc(b1-2)Man
# Procedure, shortened: as §1
# [15] = target: Neu5Ac(a2-3)Gal(b1-4)[Fuc(a1-3)]GlcNAc(b1-3)Gal
# Procedure, shortened: as §1
# [16] = target: Neu5Ac(a2-3)Gal(b1-4)[Fuc(a1-3)]GlcNAc(b1-3)Gal(b1-4)GlcNAc
# Procedure, shortened: as §1
# [17] = target: Neu5Ac(a2-3)Gal(b1-4)[Fuc(a1-3)]GlcNAc(b1-3)Gal(b1-4)[Fuc(a1-3)]GlcNAc(b1-3)Gal(b1-4)[Fuc(a1-3)]GlcNAc
# Procedure, shortened: as §1
# [18] = target: Neu5Ac(a2-3)Gal(b1-4)[Fuc(a1-3)]GlcNAc(b1-3)GalNAc
# Procedure, shortened: as §1
# [19] = target: Neu5Ac(a2-3)Gal(b1-4)[Fuc(a1-3)]GlcNAc(b1-6)[Gal(b1-3)]GalNAc
# Procedure, shortened: as §1
# [20] = target: Neu5Ac(a2-3)Gal(b1-4)[Fuc(a1-3)]GlcNAc(b1-6)[Neu5Ac(a2-3)Gal(b1-3)]GalNAc
# Procedure, shortened: as §1
# [21] = target: Neu5Ac(a2-3)Gal(b1-4)[Fuc(a1-3)]GlcNAc6S
# Procedure, shortened: as §1
# [22] = target: Neu5Ac(a2-3)Gal6S(b1-4)GlcNAc
# Procedure, shortened: as §1
# [23] = target: Neu5Ac(a2-3)Gal6S(b1-4)[Fuc(a1-3)]GlcNAc
# Procedure, shortened: as §1
binder,measurement,setting,value
PX9961K-bvu-480-28-480 (Bacteroides vulgatus) (protein) NKIPTTMAFRTVTDVDNAVNGLYDLMSGSGYYGAAMFAYGDMKGDDMQSSEESGVCNTCYMFNHRPNSLNAGSLWGRPFYILREAWNILNAIAEGKIESGDEKKLNALKGETMAVIALCQFDLTRCFGYPYTKDKGASLGAPLIDHLVGTYENPPRSTVAQAYDFIIETLEEAVTLMSEEKNNGRMNKYAARALLARIYLYHDDNRKAFDLADQLIKDADTSGSYALYPHEKYVAAWSVEAKFGSESFFEIANSVDDTPGRDSWGYLLNWYGYQKGFVTQKYAEQMLADPGDVRGHLLEENKYAGKTVWWLYKLRGTDLKTAPLECNNVVLRLSEVYLIAAEAGCKLGGDAAVQGLGYLNEIVKRGNPDNEVTMADYTLDRVLDERSKELVGEGHRFFDLLRNGKTIVRKGGYHLPSVDEEVDWDFYKCVLPIPEDQFIFSPEMEQNPGYPKN,glycan array binding signal (z-score),[1],0.057
same,glycan array binding signal (z-score),[2],0.671
same,glycan array binding signal (z-score),[3],-0.68
same,glycan array binding signal (z-score),[4],0.587
same,glycan array binding signal (z-score),[5],-0.074
same,glycan array binding signal (z-score),[6],-0.06
same,glycan array binding signal (z-score),[7],0.147
same,glycan array binding signal (z-score),[8],-0.334
same,glycan array binding signal (z-score),[9],-0.742
same,glycan array binding signal (z-score),[10],-0.454
same,glycan array binding signal (z-score),[11],-0.435
same,glycan array binding signal (z-score),[12],-0.889
same,glycan array binding signal (z-score),[13],-0.188
same,glycan array binding signal (z-score),[14],-0.256
same,glycan array binding signal (z-score),[15],-1.04
same,glycan array binding signal (z-score),[16],-0.296
same,glycan array binding signal (z-score),[17],0.017
same,glycan array binding signal (z-score),[18],1.29
same,glycan array binding signal (z-score),[19],-0.803
same,glycan array binding signal (z-score),[20],-0.445
same,glycan array binding signal (z-score),[21],-0.021
same,glycan array binding signal (z-score),[22],-0.009
same,glycan array binding signal (z-score),[23],-0.737

# Shown bar-delimited: part of the list above
binder | measurement | setting | value
PX9961K-bvu-480-28-480 (Bacteroides vulgatus) (protein) NKIPTTMAFRTVTDVDNAVNGLYDLMSGSGYYGAAMFAYGDMKGDDMQSSEESGVCNTCYMFNHRPNSLNAGSLWGRPFYILREAWNILNAIAEGKIESGDEKKLNALKGETMAVIALCQFDLTRCFGYPYTKDKGASLGAPLIDHLVGTYENPPRSTVAQAYDFIIETLEEAVTLMSEEKNNGRMNKYAARALLARIYLYHDDNRKAFDLADQLIKDADTSGSYALYPHEKYVAAWSVEAKFGSESFFEIANSVDDTPGRDSWGYLLNWYGYQKGFVTQKYAEQMLADPGDVRGHLLEENKYAGKTVWWLYKLRGTDLKTAPLECNNVVLRLSEVYLIAAEAGCKLGGDAAVQGLGYLNEIVKRGNPDNEVTMADYTLDRVLDERSKELVGEGHRFFDLLRNGKTIVRKGGYHLPSVDEEVDWDFYKCVLPIPEDQFIFSPEMEQNPGYPKN | glycan array binding signal (z-score) | [15] | -1.04
same | glycan array binding signal (z-score) | [16] | -0.296
